From patent US20230349903A1, “ASSAYS AND REAGENTS FOR CHARACTERIZATION OF MHCI PEPTIDE BINDING” (priority 2020, published 2023)

Tests used:
[1] = biological target: HLA-A*02:03 MHCI complex (Homo sapiens, UniProt P04439, A173T/D140Y/D185E/D98H/E277Q/G131W/G231S/I119V/I121R/I166T/I218V/L180W/L300P/L318F/N151K/N90K/P208A/P217A/Q86G/Q94H/R138H/R169H/T345S); assay: 2D LC/MS analysis of peptide exchange after UV exposure; details: HLA-A*02:03 conditional MHCI complex after UV, 100-fold molar excess of exchanged peptide
[2] = biological target: HLA-A*02:03 (Homo sapiens, UniProt P04439, A173T/D140Y/D185E/D98H/E277Q/G131W/G231S/I119V/I121R/I166T/I218V/L180W/L300P/L318F/N151K/N90K/P208A/P217A/Q86G/Q94H/R138H/R169H/T345S); details: read-out: dissociation constant KD (~IC50), IEDB value, purified MHC/competitive/radioactivity; cited from earlier work

CC[C@H](C)[C@H](NC(=O)[C@H](Cc1ccccc1)NC(=O)CNC(=O)[C@H](C)NC(=O)[C@@H](NC(=O)[C@H](C)NC(=O)CNC(=O)[C@H](Cc1ccccc1)NC(=O)[C@H](CC(C)C)NC(=O)CN)[C@@H](C)CC)C(=O)O
exchange peptide in EIC of the 2nd dimension (peptide exchange) [1]: a large peak corresponding to the extracted mass of the A0203-05 peptide was observed | Kd [2]: 1 nM

The match of structure and compound is tentative.
